The values that follow come from PMC3257281.

The target in test [1] is GbpA_(D1–3), GbpA domains 1 to 3 (residues 24-414) (V. cholerae) (UniProt Q9KLD5). Briefly: SAXS; both purified.
The target of test [2] is GbpAfl, mature full-length GlcNAc binding protein A (residues 24-485) (V. cholerae) (UniProt Q9KLD5). Briefly: SAXS; both purified.

Results are given in words; binding and its absence hold for the method and conditions named.

Consider “GbpA_(D1–3), GbpA domains 1 to 3 (residues 24-414) (from UniProt Q9KLD5 24-414) (domain or fragment)”, for which the binding result in test [1] is “no binding”. For “GbpAfl, mature full-length GlcNAc binding protein A (residues 24-485) (from UniProt Q9KLD5 24-485)”, the binding result in test [2] is “no binding”.
